Results are given in words; binding and its absence hold for the method and conditions named. Binding calls can cover weak binding; strength is not graded here. For part of these data: Tags and fused reporters may be left off the sequences shown. For part of these data: In cells and extracts the contact can be indirect.
What was measured:
[1] = biological target: T1, Lactococcus lactis Csm4, subunit of the LlCsm complex (Lactococcus lactis) (UniProt L0CFH1); assay: cryo-EM structure; co-purified LlCsm (Csm1 D14N, Csm3 D30A)-crRNA incubated with CTR at 1:2, 37 °C, 60 min, then SEC; no ATP; two classes, CTR-43 (3.0 Å) and CTR-32 (3.3 Å); both purified
T1 sequence: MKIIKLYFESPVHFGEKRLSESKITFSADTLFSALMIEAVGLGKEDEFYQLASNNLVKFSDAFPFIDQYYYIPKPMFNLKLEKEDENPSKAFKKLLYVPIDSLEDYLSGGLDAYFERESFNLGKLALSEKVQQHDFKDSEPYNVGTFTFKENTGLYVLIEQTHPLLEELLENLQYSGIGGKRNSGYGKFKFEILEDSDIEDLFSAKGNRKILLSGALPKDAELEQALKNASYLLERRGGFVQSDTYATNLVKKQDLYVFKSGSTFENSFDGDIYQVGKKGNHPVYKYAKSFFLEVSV

[2] = biological target: T1, Lactococcus lactis Csm4, subunit of the LlCsm complex (Lactococcus lactis); assay: cryo-EM structure; co-purified LlCsm (Csm1 D14N, Csm3 D30A)-crRNA without target RNA (apo); 2.9 Å; both purified
[3] = biological target: T2, Lactococcus lactis Csm2 with N-terminal His6-tag, subunit of the LlCsm complex (Lactococcus lactis) (UniProt L0CFW2); assay: cryo-EM structure; co-purified LlCsm (Csm1 D14N, Csm3 D30A)-crRNA incubated with NTR at 1:2, 37 °C, 60 min, then SEC; 3.4 Å; both purified
T2 sequence: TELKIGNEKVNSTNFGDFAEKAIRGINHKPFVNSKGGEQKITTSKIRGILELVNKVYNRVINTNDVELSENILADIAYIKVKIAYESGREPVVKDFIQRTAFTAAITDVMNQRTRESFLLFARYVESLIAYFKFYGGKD

[4] = biological target: T1, Lactococcus lactis Csm4, subunit of the LlCsm complex (Lactococcus lactis); assay: as above
[5] = biological target: T2, Lactococcus lactis Csm2 with N-terminal His6-tag, subunit of the LlCsm complex (Lactococcus lactis); assay: cryo-EM structure; apo subpopulation from a mixture of LlCsm with DTR, no DTR bound; 4.5 Å; no model built, used only to confirm presence and placement of the subunits; both purified
[6] = biological target: T1, Lactococcus lactis Csm4, subunit of the LlCsm complex (Lactococcus lactis); assay: as above

binding [1]: binds | binding [2]: binds | binding [3]: binds | binding [4]: binds | binding [5]: binds | binding [6]: binds
Substance: Lactococcus lactis Csm1 (Cas10) Asp14Asn, subunit of the LlCsm (D14N)1(D30A)3 complex
